Source: US20090087389A1, “DEHYDROEPIAN[…] DIHYDRATE INHALATION COMPOSITIONS AND METHODS” ([…] PHARMACEUTICALS, LLC., priority 2002, published 2009)

What was measured:
[1] = Emitted dose from dry powder inhalers (Nephele tube, HPLC); details: jet-milled powder; Diskhaler; 60 L/min
[2] = Fine particle fraction, single-dose Acu-Breathe inhaler into Andersen impactor (stages 1-5); details: neat micronized powder; flow rates 30 to 75 L/min; FIG. 1

Row | SMILES | Emitted Dose, Average [1] [%] | fine particle fraction versus virtually anhydrous material [2]
1 | C[C@]12CC[C@H](OS(=O)(=O)[O-])CC1=CC[C@@H]1[C@@H]2CC[C@]2(C)C(=O)CC[C@@H]12.[Na+] [Anhydrous DHEA-S] | 53.4 | 
2 | CC12CCC3C(CC=C4CC(OS(=O)(=O)[O-])CCC43C)C1CCC2=O.[Na+] (centres unmarked) [DHEA-S dihydrate, dehydroepiandrosterone sodium sulfate dihydrate] |  | higher fine particle fraction
